According to patent US4405642A, “Method for treatment or prophylaxis of cardiac disorders” (American Hospital Supply Corporation, priority 1980, dated 1983):
Where “and” joins values, the source holds several entries; their conditions need not be identical. Equal values may be shown once. At least one read-out could not be matched to a standard name with certainty.

Tested on: heart rate response to isoproterenol
Test: Duration of beta-blockade in vivo, anesthetized dogs, 3-hour infusion
Details: after termination of 3-hour infusion, dog
Method: The duration of beta-blockade was determined in vivo using pentobarbitalanesthetized dogs instrumented for measurement of heart rate using a Beckman® cardiotachometer triggered electronically by a phasic aortic blood pressure signal. Both vagus nerves were severed in the cervical region and the animals were mechanically ventilated. Two experimental designs were used. The first employed a 40-minute infusion of test compound and the second used a 3-hour infusion of test compound. In the 40-minute model, isoproterenol was infused into a foreleg vein at the rate of 0.5 μg/kg/min to induce a beta-receptor mediated tachycardia. Various doses of test compound where then infused into a femoral vein over a period of 40 minutes. This infusion was then terminated and recovery from blockade was quantitated. […] This cumulative dose is expressed as mg/kg and is an indication of potency. The time period required for 80% recovery of heart rate for each dose of test drug was also measured to quantitate duration of action. […] Test compounds were dissolved in 0.9% NaCl and infused at a rate of 0.05 ml/kg/min or less. In the 3-hour infusion model, bolus doses of isoproterenol (0.5 μg/kg) were used to assess the degree of beta-blockade and recovery from beta-blockade after termination of the infusion. […]

Question: With `CC(C)NCC(O)COC(=O)c1ccc(O)cc1` (stereo not shown) [LVI] as the compound, how does the “80% Recovery Time” value read?
Answer: The value was 45 min and > 60 min.
